According to article PMC5031922:
Residue numbers refer to the chain shown, from its start. Results are given in words; binding and its absence hold for the method and conditions named. In cells and extracts the contact can be indirect. A yes stands for co-enrichment or nearness to the bait. Other partners may have been found. No binding means not detected with the bait. Tags and fused reporters may be left off the sequences shown.

By UniProt entry, the sequences of proteins in these tests, tags left out.
UniProt Q96KQ7: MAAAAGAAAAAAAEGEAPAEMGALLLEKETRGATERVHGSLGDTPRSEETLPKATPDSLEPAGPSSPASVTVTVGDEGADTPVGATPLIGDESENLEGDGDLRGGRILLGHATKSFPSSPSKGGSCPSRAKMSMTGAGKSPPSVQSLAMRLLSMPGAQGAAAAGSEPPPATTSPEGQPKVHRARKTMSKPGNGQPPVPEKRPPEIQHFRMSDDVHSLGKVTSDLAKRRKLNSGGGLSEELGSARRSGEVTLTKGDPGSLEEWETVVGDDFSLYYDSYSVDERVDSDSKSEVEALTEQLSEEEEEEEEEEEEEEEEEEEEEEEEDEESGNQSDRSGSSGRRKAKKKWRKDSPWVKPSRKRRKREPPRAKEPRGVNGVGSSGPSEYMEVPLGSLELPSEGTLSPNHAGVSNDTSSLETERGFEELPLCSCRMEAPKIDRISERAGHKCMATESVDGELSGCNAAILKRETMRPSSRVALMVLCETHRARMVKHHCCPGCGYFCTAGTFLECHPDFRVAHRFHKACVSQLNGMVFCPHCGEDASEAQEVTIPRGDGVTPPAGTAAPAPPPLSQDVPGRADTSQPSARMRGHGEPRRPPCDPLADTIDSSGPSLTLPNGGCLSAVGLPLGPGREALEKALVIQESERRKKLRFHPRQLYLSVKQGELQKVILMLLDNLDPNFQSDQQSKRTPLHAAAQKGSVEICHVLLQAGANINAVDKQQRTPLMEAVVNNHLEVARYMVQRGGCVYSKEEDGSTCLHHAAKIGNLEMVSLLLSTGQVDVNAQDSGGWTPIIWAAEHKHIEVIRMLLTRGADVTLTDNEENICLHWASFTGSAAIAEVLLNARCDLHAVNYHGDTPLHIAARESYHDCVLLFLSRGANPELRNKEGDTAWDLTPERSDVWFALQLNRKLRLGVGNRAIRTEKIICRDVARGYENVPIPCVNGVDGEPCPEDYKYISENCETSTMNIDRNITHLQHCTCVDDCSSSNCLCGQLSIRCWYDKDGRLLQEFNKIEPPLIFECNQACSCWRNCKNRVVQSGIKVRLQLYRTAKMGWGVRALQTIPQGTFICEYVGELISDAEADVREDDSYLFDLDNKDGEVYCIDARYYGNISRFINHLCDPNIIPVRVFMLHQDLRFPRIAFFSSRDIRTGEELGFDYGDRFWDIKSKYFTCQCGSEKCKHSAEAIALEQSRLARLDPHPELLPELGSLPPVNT
UniProt Q9H9B1: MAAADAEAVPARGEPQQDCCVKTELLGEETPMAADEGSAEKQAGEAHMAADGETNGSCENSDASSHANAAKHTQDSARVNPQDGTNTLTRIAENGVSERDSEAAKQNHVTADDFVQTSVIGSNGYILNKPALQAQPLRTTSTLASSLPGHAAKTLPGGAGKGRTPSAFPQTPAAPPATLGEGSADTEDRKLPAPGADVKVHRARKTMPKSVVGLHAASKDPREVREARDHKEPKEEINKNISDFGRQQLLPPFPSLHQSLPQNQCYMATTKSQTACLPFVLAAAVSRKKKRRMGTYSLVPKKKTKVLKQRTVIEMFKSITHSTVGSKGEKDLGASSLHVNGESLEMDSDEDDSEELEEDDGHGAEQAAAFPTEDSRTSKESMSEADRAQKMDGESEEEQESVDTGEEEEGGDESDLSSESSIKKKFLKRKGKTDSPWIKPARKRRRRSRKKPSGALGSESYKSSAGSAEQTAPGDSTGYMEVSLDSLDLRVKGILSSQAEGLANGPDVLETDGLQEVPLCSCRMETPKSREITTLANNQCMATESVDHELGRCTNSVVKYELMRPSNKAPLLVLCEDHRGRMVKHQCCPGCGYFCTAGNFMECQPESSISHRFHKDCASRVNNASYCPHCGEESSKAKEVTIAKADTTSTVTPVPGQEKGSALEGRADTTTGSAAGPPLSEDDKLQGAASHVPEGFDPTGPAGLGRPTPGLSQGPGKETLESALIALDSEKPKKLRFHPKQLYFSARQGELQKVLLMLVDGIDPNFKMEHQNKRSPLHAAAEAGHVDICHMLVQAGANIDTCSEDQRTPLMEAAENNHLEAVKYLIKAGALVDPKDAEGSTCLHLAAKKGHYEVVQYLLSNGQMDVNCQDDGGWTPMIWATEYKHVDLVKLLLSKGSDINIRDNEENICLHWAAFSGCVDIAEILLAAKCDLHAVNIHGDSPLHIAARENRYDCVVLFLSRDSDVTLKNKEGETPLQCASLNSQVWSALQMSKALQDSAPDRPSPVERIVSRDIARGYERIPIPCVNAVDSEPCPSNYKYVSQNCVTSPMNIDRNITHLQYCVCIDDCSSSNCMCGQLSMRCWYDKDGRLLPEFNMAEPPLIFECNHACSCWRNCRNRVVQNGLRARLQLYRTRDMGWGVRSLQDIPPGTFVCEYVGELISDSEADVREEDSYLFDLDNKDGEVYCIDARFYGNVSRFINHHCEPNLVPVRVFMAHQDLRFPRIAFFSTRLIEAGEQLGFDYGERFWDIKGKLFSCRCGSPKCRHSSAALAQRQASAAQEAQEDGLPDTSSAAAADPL
UniProt O95785: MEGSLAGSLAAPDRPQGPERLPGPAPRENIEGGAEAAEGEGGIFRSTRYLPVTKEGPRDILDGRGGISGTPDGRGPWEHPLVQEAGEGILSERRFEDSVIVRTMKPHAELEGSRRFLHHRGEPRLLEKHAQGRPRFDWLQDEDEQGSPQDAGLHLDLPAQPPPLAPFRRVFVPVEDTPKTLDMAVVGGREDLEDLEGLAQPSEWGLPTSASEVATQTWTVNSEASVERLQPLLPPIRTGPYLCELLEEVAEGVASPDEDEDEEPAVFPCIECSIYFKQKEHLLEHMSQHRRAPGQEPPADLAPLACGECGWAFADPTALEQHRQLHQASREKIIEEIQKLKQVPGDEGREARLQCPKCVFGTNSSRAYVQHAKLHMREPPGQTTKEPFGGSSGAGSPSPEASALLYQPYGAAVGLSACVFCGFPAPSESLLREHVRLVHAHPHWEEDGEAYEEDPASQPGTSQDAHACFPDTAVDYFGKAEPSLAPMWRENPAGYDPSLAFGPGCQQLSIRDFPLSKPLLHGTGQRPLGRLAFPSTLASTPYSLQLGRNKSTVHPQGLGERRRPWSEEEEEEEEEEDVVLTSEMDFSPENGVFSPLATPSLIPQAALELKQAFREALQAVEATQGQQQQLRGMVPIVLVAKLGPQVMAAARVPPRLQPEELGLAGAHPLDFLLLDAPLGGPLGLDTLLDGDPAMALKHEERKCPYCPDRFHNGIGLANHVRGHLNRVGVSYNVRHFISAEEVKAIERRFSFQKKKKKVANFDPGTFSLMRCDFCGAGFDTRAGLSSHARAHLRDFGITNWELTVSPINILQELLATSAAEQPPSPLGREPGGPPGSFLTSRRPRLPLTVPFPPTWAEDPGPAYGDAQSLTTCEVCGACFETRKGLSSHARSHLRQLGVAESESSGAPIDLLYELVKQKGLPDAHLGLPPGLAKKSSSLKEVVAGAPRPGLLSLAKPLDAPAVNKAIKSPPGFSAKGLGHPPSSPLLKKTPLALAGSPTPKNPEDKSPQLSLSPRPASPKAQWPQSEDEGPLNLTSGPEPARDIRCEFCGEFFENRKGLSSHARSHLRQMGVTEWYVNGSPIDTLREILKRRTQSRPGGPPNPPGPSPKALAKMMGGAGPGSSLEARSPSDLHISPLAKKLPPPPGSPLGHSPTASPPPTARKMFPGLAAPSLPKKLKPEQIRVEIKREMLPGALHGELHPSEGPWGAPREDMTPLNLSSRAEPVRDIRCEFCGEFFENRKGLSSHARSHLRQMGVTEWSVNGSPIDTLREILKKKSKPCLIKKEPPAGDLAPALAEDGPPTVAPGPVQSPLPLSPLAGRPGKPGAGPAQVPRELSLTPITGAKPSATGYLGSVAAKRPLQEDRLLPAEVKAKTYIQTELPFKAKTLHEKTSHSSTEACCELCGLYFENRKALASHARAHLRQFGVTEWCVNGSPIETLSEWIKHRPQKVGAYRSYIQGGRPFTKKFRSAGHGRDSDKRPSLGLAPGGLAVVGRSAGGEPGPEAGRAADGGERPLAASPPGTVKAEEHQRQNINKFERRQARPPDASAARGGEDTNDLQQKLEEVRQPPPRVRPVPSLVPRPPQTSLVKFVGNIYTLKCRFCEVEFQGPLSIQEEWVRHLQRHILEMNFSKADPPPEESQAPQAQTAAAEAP

What was measured:
[1] = molecular target: T1, GFP-tagged full-length ZNF644 C1263A (human) (UniProt Q9H582); assay: affinity purification with mass spectrometry; GFP-tagged bait in Flp-In T-Rex HEK293, induced with 1 ug/ml doxycycline for 24 hr; purified with rabbit anti-GFP antibody
T1 sequence: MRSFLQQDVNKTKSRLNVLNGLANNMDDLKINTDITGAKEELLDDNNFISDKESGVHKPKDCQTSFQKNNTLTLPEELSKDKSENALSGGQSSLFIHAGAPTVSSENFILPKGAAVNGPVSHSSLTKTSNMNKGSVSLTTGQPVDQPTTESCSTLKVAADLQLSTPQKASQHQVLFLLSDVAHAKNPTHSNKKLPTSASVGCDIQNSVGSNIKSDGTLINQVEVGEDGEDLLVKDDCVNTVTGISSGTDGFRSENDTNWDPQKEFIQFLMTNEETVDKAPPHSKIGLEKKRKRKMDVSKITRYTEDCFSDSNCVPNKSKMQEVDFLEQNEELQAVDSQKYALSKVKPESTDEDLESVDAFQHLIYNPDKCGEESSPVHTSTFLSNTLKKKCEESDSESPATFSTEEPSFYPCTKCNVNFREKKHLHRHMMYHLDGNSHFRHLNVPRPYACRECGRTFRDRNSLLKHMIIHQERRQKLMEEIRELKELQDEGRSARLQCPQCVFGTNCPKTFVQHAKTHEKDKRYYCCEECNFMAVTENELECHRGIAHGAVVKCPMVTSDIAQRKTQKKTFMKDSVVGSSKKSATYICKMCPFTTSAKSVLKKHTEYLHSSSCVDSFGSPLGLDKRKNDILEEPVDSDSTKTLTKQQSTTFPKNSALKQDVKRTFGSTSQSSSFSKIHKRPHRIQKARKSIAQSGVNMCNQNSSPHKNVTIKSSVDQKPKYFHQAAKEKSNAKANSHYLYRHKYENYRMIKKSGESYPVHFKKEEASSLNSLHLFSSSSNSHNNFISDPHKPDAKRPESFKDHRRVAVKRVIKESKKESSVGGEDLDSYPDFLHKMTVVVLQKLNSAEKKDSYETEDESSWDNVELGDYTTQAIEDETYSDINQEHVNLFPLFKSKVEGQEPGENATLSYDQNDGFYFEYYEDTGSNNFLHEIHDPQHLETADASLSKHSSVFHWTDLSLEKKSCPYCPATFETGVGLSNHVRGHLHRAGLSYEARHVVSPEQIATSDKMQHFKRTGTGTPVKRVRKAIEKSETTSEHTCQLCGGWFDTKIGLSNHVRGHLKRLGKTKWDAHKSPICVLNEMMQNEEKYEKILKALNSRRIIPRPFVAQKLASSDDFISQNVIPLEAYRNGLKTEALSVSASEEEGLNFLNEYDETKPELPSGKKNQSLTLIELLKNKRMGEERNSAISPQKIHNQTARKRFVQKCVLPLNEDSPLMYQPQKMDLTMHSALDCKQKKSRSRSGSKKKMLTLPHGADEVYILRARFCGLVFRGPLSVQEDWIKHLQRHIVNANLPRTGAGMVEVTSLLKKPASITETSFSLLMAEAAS

[2] = molecular target: T2, GFP-tagged full-length ZNF644 H1283A (human) (UniProt Q9H582); assay: as above
T2 sequence: T1 sequence with A1263C, H1283A

Substance | binding [1] | binding [2]
G9a (endogenous) (from UniProt Q96KQ7 1-1210) (enzyme) | no binding | no binding
GLP (from UniProt Q9H9B1 1-1298) (enzyme) | no binding | no binding
WIZ (from UniProt O95785 1-1651) | no binding | no binding
